Results as given in PMC6902002, “Recognition and processing of branched DNA substrates by Slx1–Slx4 nuclease”.
No constants are given. Whether binding was seen depends on the method and setting. Some entries that bind do so weakly or less than the wild type.

Biological target: T1, Candida glabrata Slx1, wild type (Candida glabrata) (UniProt Q6FML9)
T1 sequence: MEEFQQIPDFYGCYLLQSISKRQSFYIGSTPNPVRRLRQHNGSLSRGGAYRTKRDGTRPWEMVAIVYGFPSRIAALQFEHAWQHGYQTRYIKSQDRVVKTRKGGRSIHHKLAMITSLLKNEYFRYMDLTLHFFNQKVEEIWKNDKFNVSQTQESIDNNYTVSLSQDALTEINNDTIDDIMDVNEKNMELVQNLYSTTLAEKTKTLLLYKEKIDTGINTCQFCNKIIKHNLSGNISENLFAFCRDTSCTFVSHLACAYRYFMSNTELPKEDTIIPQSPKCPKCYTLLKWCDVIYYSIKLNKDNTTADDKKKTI
Assay: co-purification; Cg-Slx1 (wild type or point substitution variant) purified as a complex with Cg-Slx4^CCD, as described earlier (ref. 21)

B1: Candida glabrata Slx4 conserved C-terminal domain (residues 557-726) (domain or fragment, UniProt Q6FJQ6 557-726)
chain: LANIELTEEHEVLGNIDGQPGEELFAVVLSISNNLELLSSPGVDTHTKEKSPSLAELRKDLDKIGLKPVRLKSQIIENLASASQVVTVDESNQKKVGVTSKSEVFEFLTHLVKQEPDLLTRIYCFQPITMNDLINKLRNKDSFVDLIDDGTIREWTDKLGICIRSNNLKD
With B1 the binding was “binds”.
